This passage reports binding results from PMC11122047.

Chains of the proteins cited; added tags and fusions are not shown. Lines headed by an entry give the natural chain unless they say otherwise; changes in a name come on top. A line that says so, or that is headed by a name, gives the form on record, which may keep a tag or linker. Residues count along the entry.
TrkAIII (alternative splice variant of the neurotrophin receptor tropomyosin-related kinase A, NTRK1/TrkA) (P04629, form named): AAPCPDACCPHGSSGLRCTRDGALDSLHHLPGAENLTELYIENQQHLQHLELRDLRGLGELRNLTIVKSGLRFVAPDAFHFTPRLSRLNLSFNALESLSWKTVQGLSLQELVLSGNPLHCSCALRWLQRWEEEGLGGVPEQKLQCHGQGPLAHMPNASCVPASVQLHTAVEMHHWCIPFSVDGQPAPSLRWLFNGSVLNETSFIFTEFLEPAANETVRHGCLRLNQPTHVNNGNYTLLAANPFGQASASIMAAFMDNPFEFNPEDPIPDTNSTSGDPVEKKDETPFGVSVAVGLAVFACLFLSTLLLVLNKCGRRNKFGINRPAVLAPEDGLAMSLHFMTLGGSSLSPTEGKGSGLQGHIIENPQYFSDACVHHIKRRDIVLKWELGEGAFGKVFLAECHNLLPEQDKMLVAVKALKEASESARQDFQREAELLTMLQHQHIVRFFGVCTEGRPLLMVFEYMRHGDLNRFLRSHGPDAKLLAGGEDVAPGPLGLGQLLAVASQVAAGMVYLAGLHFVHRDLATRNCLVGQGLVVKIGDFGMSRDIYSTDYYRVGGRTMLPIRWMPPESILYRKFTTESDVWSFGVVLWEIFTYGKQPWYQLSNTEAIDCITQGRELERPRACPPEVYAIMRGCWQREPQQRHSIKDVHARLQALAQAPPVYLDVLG
UniProt P11021, residues 19-654: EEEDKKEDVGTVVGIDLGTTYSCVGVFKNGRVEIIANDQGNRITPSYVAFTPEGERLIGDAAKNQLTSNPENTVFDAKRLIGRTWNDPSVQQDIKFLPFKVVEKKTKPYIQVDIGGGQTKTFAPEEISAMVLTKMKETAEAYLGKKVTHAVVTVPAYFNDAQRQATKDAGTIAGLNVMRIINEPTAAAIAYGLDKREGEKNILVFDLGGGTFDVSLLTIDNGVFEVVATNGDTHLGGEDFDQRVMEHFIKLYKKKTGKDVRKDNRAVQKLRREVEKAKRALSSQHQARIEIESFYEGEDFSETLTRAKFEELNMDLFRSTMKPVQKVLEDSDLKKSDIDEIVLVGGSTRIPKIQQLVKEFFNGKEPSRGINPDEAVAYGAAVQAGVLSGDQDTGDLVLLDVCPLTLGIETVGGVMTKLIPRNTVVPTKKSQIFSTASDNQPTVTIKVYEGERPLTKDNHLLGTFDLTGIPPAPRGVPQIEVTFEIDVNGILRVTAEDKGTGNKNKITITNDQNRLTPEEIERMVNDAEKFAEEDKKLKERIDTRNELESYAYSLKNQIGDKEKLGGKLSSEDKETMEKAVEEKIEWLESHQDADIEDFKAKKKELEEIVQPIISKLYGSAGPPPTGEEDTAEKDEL

No constants are given. Whether binding was seen depends on the method and setting. Binding seen in cells or lysates may run through a third protein. Some entries that bind do so weakly or less than the wild type.

In the assay the target is TrkAIII (alternative splice variant of the neurotrophin receptor tropomyosin-related kinase A, NTRK1/TrkA) (human) (UniProt P04629). As to the kind of experiment: co-IP; anti-TrkA antibody, protein A Sepharose, overnight at 4 °C in lysis buffer (PBS, 0.5% sodium deoxycholate, 1% NP40, 0.1% SDS); extracts of TrkAIII SH-SY5Y cells untreated or treated with 5 mM DTT for 6 h; Grp78 detected by Western blot.

On to “78kDa glucose regulated protein (Grp78) (from UniProt P11021 19-654)”, for which the binding entry is “binds”.
